# Values from PubChem BioAssay AID504784 (Drosophila RNAi Screening Center, 2011).
# Test: 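Search for regulators of lipid droplet storage in oleate-fed fly cells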 (primary screen)
# Cells: Drosophila Kc167 embryonic cells
# Reagents: long dsRNA against Drosophila genes, about 250 ng dsRNA per well
# Duration: 4 days
# Challenge: cells fed 400 µM oleic acid bound to BSA
# Read-out: 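Cells imaged and segmented; ratio of lipid droplet area to nuclear area, log-transformed, then normalised as a B-score over the screen; higher means more stored lipid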
# Reading the numbers: droplet/nuclear area B-score: higher = more stored lipid (overstorage)
# The screen tested about 17,000 reagents; shown is an unselected part of those that have a named target and a result. 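Each column is one replicate's B-score; the combined score over replicates was not deposited, so single values may mislead.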 The numbers tell different reagents against one gene apart. Names joined by + are all predicted targets of the reagent.
gene,reagent,"droplet/nuclear area B-score, replicate 1","droplet/nuclear area B-score, replicate 2","droplet/nuclear area B-score, replicate 3"
CG42588,1,-1.7,-0.737,
CG42588,2,-0.419,-0.453,
Mcm10 (Minichromosome maintenance 10),1,-0.0815,2,
pck (pickel),1,-0.536,0.334,
CG14329,1,-0.739,0.541,
CG6136,1,-0.58,-0.773,
POSH (Plenty of SH3s),1,-0.0423,-1.39,
Mical (Molecule interacting with CasL),1,-0.0643,0.239,
Mical (Molecule interacting with CasL),2,1.43,0.546,
Mical (Molecule interacting with CasL),3,-0.294,0.106,
Mical (Molecule interacting with CasL),4,-0.0274,-0.625,
CG3008,1,-0.396,1.28,
CG6867,1,0.576,0.97,-0.392
Upf2,1,0.291,0.0228,
Acp36DE (Accessory gland protein 36DE),1,1.13,-0.848,
Prps (Phosphoribosyl pyrophosphate synthetase),1,0.818,2.96,
Prps (Phosphoribosyl pyrophosphate synthetase),2,-0.219,-3.91,
Prps (Phosphoribosyl pyrophosphate synthetase),3,-0.699,-1.04,
CG18528,1,-0.0509,-1.94,
ND-ACP,1,-0.651,-1.21,
"SmydA-2 (SET and MYND domain containing, arthropod-specific, member 2)",1,-0.298,0.0741,
rudhira,1,-0.00208,-1.51,1.47
rudhira,2,2.14,-1.32,
rudhira,3,1.09,1.89,
Cbp80 (cap binding protein 80),1,-0.00506,-1.27,0.604
Mob4 (MOB kinase activator 4),1,-1.43,-0.883,
"ATPsynO (ATP synthase, oligomycin sensitivity conferring protein)",1,0.000816,-0.451,
CG8289,1,-0.432,0.00766,
crm (cramped),1,-2.29,0.688,2.73
Mf (Myofilin),1,0.0397,-1.41,
CG30419,1,-0.592,-0.797,-0.961
CG30419,2,-1.92,0.528,-1.13
CG30419,3,0.505,-0.157,
Syt12 (Synaptotagmin 12),1,1.25,0.869,-0.692
Acp26Ab (Accessory gland protein 26Ab),1,0.181,-1.8,
CG8661,1,-0.0618,-0.0689,
Prim1 (DNA primase subunit 1),1,1.79,0.053,
Rpn6 (Regulatory particle non-ATPase 6),1,0.241,0.722,
PolH (DNA polymerase eta),1,0.148,0.114,1.13
CG3687,1,-1.11,-1.55,
Cog1 (Component of oligomeric golgi complex 1),1,0.0296,-0.704,
Cad87A (Cadherin 87A),1,-0.0807,0.753,
Polr1A (RNA polymerase I subunit A),1,-1.55,-0.633,
Arp1 (Actin-related protein 1),1,2.74,2.48,
CG7183,1,-0.711,-0.854,
CG7194,1,-0.582,-1.14,
CG9098,1,0.75,-0.171,-0.077
CG9098,2,1.28,0.0438,
sordd2 + sordd1,1,-0.837,0.47,-0.668
CAHbeta (Carbonic anhydrase beta),1,-0.17,11.8,
Or7a (Odorant receptor 7a),1,0.84,1.12,
Rae1,1,-1.87,-3.01,
CG5902,1,1.56,-1.45,
CG9698,1,0.879,0.458,
CG7352,1,2.14,-1.4,
RnrS (Ribonucleoside diphosphate reductase small subunit),1,7.56,-1.26,
